PubChem BioAssay AID1508597, Cure First, 2020
Aim: 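Genes whose silencing sensitises or protects ovarian cancer cells against rucaparib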 (primary screen). System: human ovarian carcinoma lines grown from tumours: OCI-P5x (papillary serous) and OCI-C5x (clear cell). Reagent: siRNA pool against human genes, 1.25 pmol siRNA per well. Time to read-out: 72 h or 96 h, depending on the cell culture. Conditions: rucaparib 20 µM (about IC30) or vehicle, present until read-out. Rucaparib or vehicle: Rucaparib. Cell line: OCI-C5x (clear cell). Measurement: 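ATP luminescence measured at 72 or 96 h according to the culture, then normalised and expressed as percent viability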. Scale: viability, normalised: higher = more viable cells remaining. Call rule: 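a well counts as a hit if its normalised viability is under 80 percent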. Calls: active = viability under 80%; inactive = viability 80% or more.
This is an unselected part of the about 2,100 reagents, in one setting of the screen. 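Calls flag viability under 80% in either arm, not effects specific to rucaparib; the reference for percent is not stated.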 A reagent listed more than once was tested more than once; the source does not tell the runs apart. Not stated in the record: the 100% reference.

Gene	technical replicate	viability, normalised (%)	outcome
PDE3B	1	56.2	active
PDE3B	2	60.2	active
PDE3B	3	62.4	active
DGKB	1	39.9	active
DGKB	2	39.6	active
DGKB	3	46.2	active
PIM1	1	48.1	active
PIM1	2	58.5	active
PIM1	3	39.6	active
CENPE	1	29.1	active
CENPE	2	38.4	active
CENPE	3	35.7	active
SCAF11	1	47.6	active
SCAF11	2	52	active
SCAF11	3	42.1	active
MORC1	1	46.1	active
MORC1	2	45.4	active
MORC1	3	58	active
TRIM66	1	81.8	inactive
TRIM66	2	55.3	active
TRIM66	3	52.1	active
NCOA1	1	42.7	active
NCOA1	2	43.9	active
NCOA1	3	45.7	active
CLDN9	1	55.5	active
CLDN9	2	46.2	active
CLDN9	3	50.3	active
UTY	1	77.9	active
UTY	2	89.7	inactive
UTY	3	56.8	active
NABP2	1	43.5	active
NABP2	2	46.4	active
NABP2	3	53.8	active
MED16	1	58.7	active
MED16	2	40.9	active
MED16	3	38.7	active
DPH3	1	32.3	active
DPH3	2	38.6	active
DPH3	3	41.1	active
ARRB1	1	65.3	active
ARRB1	2	40.3	active
ARRB1	3	55.8	active
DDX5	1	51.6	active
DDX5	1	74.4	active
DDX5	2	72.1	active
DDX5	2	69.3	active
DDX5	3	54.7	active
DDX5	3	56	active
SETD3	1	39.2	active
SETD3	2	38.5	active
SETD3	3	33.8	active
PDGFRA	1	92.9	inactive
PDGFRA	2	98	inactive
PDGFRA	3	84.7	inactive
TDP1	1	52.2	active
TDP1	1	89.9	inactive
TDP1	2	74.4	active
TDP1	2	44	active
TDP1	3	51.9	active
TDP1	3	83.5	inactive
PRKRA	1	55.7	active
PRKRA	2	58.3	active
PRKRA	3	39.1	active
MTOR	1	77.6	active
MTOR	2	59	active
MTOR	3	64.5	active
RTEL1	1	44.4	active
RTEL1	2	42.7	active
RTEL1	3	35.6	active
RAD54B	1	63.9	active
RAD54B	1	60.9	active
RAD54B	2	43.3	active
RAD54B	2	50.5	active
RAD54B	3	57.1	active
RAD54B	3	65.5	active

In a second layout: 4 of the entries above
Gene,technical replicate,"viability, normalised (%)",outcome
DDX5,2,72.1,active
DDX5,2,69.3,active
DDX5,3,54.7,active
DDX5,3,56,active
